Publication PMC4220969, “Structural basis for the recognition of muramyltripeptide by Helicobacter pylori Csd4, a D,L-carboxypeptidase controlling the helical cell shape” (Acta Crystallographica Section D: Biological Crystallography, 2014)
No constants are given. Whether binding was seen depends on the method and setting.

Target: Helicobacter pylori Csd4 (HP1075 in strain 26695), recombinant, residues Met22-Val438 (Helicobacter pylori strain 26695) (UniProt O25708)
Test: crystal structure; Csd4 crystals (unbound, muramyltripeptide-bound, mDAP-bound), one monomer in the asymmetric unit; 200 mM calcium chloride, 100 mM HEPES pH 7.5, 25% PEG 3350; both purified

B1: Helicobacter pylori Csd4 (HP1075 in strain 26695), recombinant, residues Met22-Val438 (enzyme, UniProt O25708 22-438)
chain: MIEKAPTNVEDRDKAPHLLLLAGIQGDEPGGFNATNLFLMHYSVLKGLVEVVPVLNKPSMLRNHRGLYGDMNRKFAALDKNDPEYPTIQEIKSLIAKPSIDAVLHLHDGGGYYRPVYVDAMLNPKRWGNCFIIDQDEVKGAKFPNLLAFANNTIESINAHLLHPIEEYHLKNTRTAQGDTEMQKALTFYAINQKKSAFANEASKELPLASRVFYHLQAIEGLLNQLNIPFKRDFDLNPNSVHALINDKNLWAKISSLPKMPLFNLRPKLNHFPLPHNTKIPQIPIESNAYIVGLVKNKQEVFLKYGNKLMTRLSPFYIEFDPSLEEVKMQIDNKDQMVKIGSVVEVKESFYIHAMDNIRANVIGFSVSNENKPNEAGYTIKFKDFQKRFSLDKQERIYRIEFYKNNAFSGMILVKFV
binding: no binding
